Experimental data reported in the supplement of paper PMC8728848.
This is one part of the list.

What was measured:
Experiment in all cases: glycan array binding signal (z-score within array); higher = stronger binding
Settings in all cases: glycan notation: IUPAC condensed, linker removed
[1] = molecular target: Neu5Ac(a2-3)Gal(b1-3)GlcNAc(b1-6)GalNAc
Procedure, shortened: (§1)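 Negative Z-scores can be read as non-binding. The Z-score is calculated within each array and then averaged across arrays of one protein sequence at different concentrations or buffers and across linkers. Arrays, 3228 in all, were curated from the Consortium for Functional Glycomics database and kept only where the protein sequence was available.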

[2] = molecular target: Neu5Ac(a2-3)Gal(b1-3)GlcNAc6S
Procedure, shortened: as §1

[3] = molecular target: Neu5Ac(a2-3)Gal(b1-3)[Fuc(a1-4)]GlcNAc
Procedure, shortened: as §1

[4] = molecular target: Neu5Ac(a2-3)Gal(b1-3)[Fuc(a1-4)]GlcNAc(b1-3)Gal(b1-3)[Fuc(a1-4)]GlcNAc
Procedure, shortened: as §1

[5] = molecular target: Neu5Ac(a2-3)Gal(b1-3)[Fuc(a1-4)]GlcNAc(b1-3)Gal(b1-4)[Fuc(a1-3)]GlcNAc
Procedure, shortened: as §1

[6] = molecular target: Neu5Ac(a2-3)Gal(b1-3)[GlcNAc(b1-6)]GalNAc
Procedure, shortened: as §1

[7] = molecular target: Neu5Ac(a2-3)Gal(b1-3)[Neu5Ac(a2-6)]GalNAc
Procedure, shortened: as §1

[8] = molecular target: Neu5Ac(a2-3)Gal(b1-3)[Neu5Ac(a2-6)]GlcNAc(b1-3)[Fuc(a1-3)[Gal(b1-4)]GlcNAc(b1-6)]Gal(b1-4)Glc
Procedure, shortened: as §1

[9] = molecular target: Neu5Ac(a2-3)Gal(b1-3)]Neu5Ac(a2-3)Gal(b1-4)]GlcNAc
Procedure, shortened: as §1

Neu5Ac(a2-3)Gal(b1-4)Glc = molecular target: Neu5Ac(a2-3)Gal(b1-4)Glc
Procedure, shortened: as §1

[10] = molecular target: Neu5Ac(a2-3)Gal(b1-4)GlcNAc
Procedure, shortened: as §1

[11] = molecular target: Neu5Ac(a2-3)Gal(b1-4)GlcNAc(b1-2)Man
Procedure, shortened: as §1

[12] = molecular target: Neu5Ac(a2-3)Gal(b1-4)GlcNAc(b1-2)Man(a1-3)[GlcNAc(b1-4)][Neu5Ac(a2-3)Gal(b1-4)GlcNAc(b1-2)Man(a1-6)]Man(b1-4)GlcNAc(b1-4)GlcNAc
Procedure, shortened: as §1

[13] = molecular target: Neu5Ac(a2-3)Gal(b1-4)GlcNAc(b1-2)Man(a1-3)[Neu5Ac(a2-3)Gal(b1-4)GlcNAc(b1-2)Man(a1-6)]Man(b1-4)GlcNAc(b1-4)GlcNAc
Procedure, shortened: as §1

[14] = molecular target: Neu5Ac(a2-3)Gal(b1-4)GlcNAc(b1-2)Man(a1-3)[Neu5Ac(a2-3)Gal(b1-4)GlcNAc(b1-2)Man(a1-6)]Man(b1-4)GlcNAc(b1-4)[Fuc(a1-6)]GlcNAc
Procedure, shortened: as §1

[15] = molecular target: Neu5Ac(a2-3)Gal(b1-4)GlcNAc(b1-2)Man(a1-3)[Neu5Ac(a2-6)Gal(b1-4)GlcNAc(b1-2)Man(a1-6)]Man(b1-4)GlcNAc(b1-4)GlcNAc
Procedure, shortened: as §1

[16] = molecular target: Neu5Ac(a2-3)Gal(b1-4)GlcNAc(b1-2)[Neu5Ac(a2-3)Gal(b1-4)GlcNAc(b1-4)]Man(a1-3)[GlcNAc(b1-4)][Neu5Ac(a2-3)Gal(b1-4)GlcNAc(b1-2)[Neu5Ac(a2-3)Gal(b1-4)GlcNAc(b1-6)]Man(a1-6)]Man(b1-4)GlcNAc(b1-4)GlcNAc
Procedure, shortened: as §1

[17] = molecular target: Neu5Ac(a2-3)Gal(b1-4)GlcNAc(b1-2)[Neu5Ac(a2-3)Gal(b1-4)GlcNAc(b1-4)]Man(a1-3)[GlcNAc(b1-4)][Neu5Ac(a2-3)Gal(b1-4)GlcNAc(b1-4)Man(a1-6)]Man(b1-4)GlcNAc(b1-4)GlcNAc
Procedure, shortened: as §1

[18] = molecular target: Neu5Ac(a2-3)Gal(b1-4)GlcNAc(b1-2)[Neu5Ac(a2-3)Gal(b1-4)GlcNAc(b1-6)]Man(a1-6)[Neu5Ac(a2-3)Gal(b1-4)GlcNAc(b1-2)Man(a1-3)][GlcNAc(b1-4)]Man(b1-4)GlcNAc(b1-4)GlcNAc
Procedure, shortened: as §1

[19] = molecular target: Neu5Ac(a2-3)Gal(b1-4)GlcNAc(b1-3)Gal
Procedure, shortened: as §1

[20] = molecular target: Neu5Ac(a2-3)Gal(b1-4)GlcNAc(b1-3)Gal(b1-3)GlcNAc
Procedure, shortened: as §1

[21] = molecular target: Neu5Ac(a2-3)Gal(b1-4)GlcNAc(b1-3)Gal(b1-4)GlcNAc
Procedure, shortened: as §1

[22] = molecular target: Neu5Ac(a2-3)Gal(b1-4)GlcNAc(b1-3)Gal(b1-4)GlcNAc(b1-2)Man(a1-3)[Neu5Ac(a2-3)Gal(b1-4)GlcNAc(b1-3)Gal(b1-4)GlcNAc(b1-2)Man(a1-6)]Man(b1-4)GlcNAc(b1-4)GlcNAc
Procedure, shortened: as §1

[23] = molecular target: Neu5Ac(a2-3)Gal(b1-4)GlcNAc(b1-3)Gal(b1-4)GlcNAc(b1-3)Gal(b1-4)GlcNAc
Procedure, shortened: as §1

[24] = molecular target: Neu5Ac(a2-3)Gal(b1-4)GlcNAc(b1-3)Gal(b1-4)GlcNAc(b1-3)Gal(b1-4)GlcNAc(b1-2)Man(a1-3)[Neu5Ac(a2-3)Gal(b1-4)GlcNAc(b1-3)Gal(b1-4)GlcNAc(b1-3)Gal(b1-4)GlcNAc(b1-2)Man(a1-6)]GalNAc
Procedure, shortened: as §1

[25] = molecular target: Neu5Ac(a2-3)Gal(b1-4)GlcNAc(b1-3)Gal(b1-4)GlcNAc(b1-3)GalNAc
Procedure, shortened: as §1

[26] = molecular target: Neu5Ac(a2-3)Gal(b1-4)GlcNAc(b1-3)Gal(b1-4)GlcNAc(b1-3)[Neu5Ac(a2-3)Gal(b1-4)GlcNAc(b1-3)Gal(b1-4)GlcNAc(b1-6)]GalNAc
Procedure, shortened: as §1

[27] = molecular target: Neu5Ac(a2-3)Gal(b1-4)GlcNAc(b1-3)Gal(b1-4)GlcNAc(b1-6)[Gal(b1-3)]GalNAc
Procedure, shortened: as §1

[28] = molecular target: Neu5Ac(a2-3)Gal(b1-4)GlcNAc(b1-3)Gal(b1-4)[Fuc(a1-3)]GlcNAc
Procedure, shortened: as §1

[29] = molecular target: Neu5Ac(a2-3)Gal(b1-4)GlcNAc(b1-3)GalNAc
Procedure, shortened: as §1

[30] = molecular target: Neu5Ac(a2-3)Gal(b1-4)GlcNAc(b1-3)[Neu5Ac(a2-3)Gal(b1-4)GlcNAc(b1-6)]GalNAc
Procedure, shortened: as §1

[31] = molecular target: Neu5Ac(a2-3)Gal(b1-4)GlcNAc(b1-6)GalNAc
Procedure, shortened: as §1

[32] = molecular target: Neu5Ac(a2-3)Gal(b1-4)GlcNAc(b1-6)[Gal(b1-3)]GalNAc
Procedure, shortened: as §1

[33] = molecular target: Neu5Ac(a2-3)Gal(b1-4)GlcNAc(b1-6)[Neu5Ac(a2-3)Gal(b1-3)]GalNAc
Procedure, shortened: as §1

[34] = molecular target: Neu5Ac(a2-3)Gal(b1-4)GlcNAc6S
Procedure, shortened: as §1

[35] = molecular target: Neu5Ac(a2-3)Gal(b1-4)[Fuc(a1-3)]GlcNAc
Procedure, shortened: as §1

[36] = molecular target: Neu5Ac(a2-3)Gal(b1-4)[Fuc(a1-3)]GlcNAc(b1-2)Man
Procedure, shortened: as §1

[37] = molecular target: Neu5Ac(a2-3)Gal(b1-4)[Fuc(a1-3)]GlcNAc(b1-3)Gal
Procedure, shortened: as §1

[38] = molecular target: Neu5Ac(a2-3)Gal(b1-4)[Fuc(a1-3)]GlcNAc(b1-3)Gal(b1-4)GlcNAc
Procedure, shortened: as §1

[39] = molecular target: Neu5Ac(a2-3)Gal(b1-4)[Fuc(a1-3)]GlcNAc(b1-3)Gal(b1-4)[Fuc(a1-3)]GlcNAc(b1-3)Gal(b1-4)[Fuc(a1-3)]GlcNAc
Procedure, shortened: as §1

[40] = molecular target: Neu5Ac(a2-3)Gal(b1-4)[Fuc(a1-3)]GlcNAc(b1-3)GalNAc
Procedure, shortened: as §1

[41] = molecular target: Neu5Ac(a2-3)Gal(b1-4)[Fuc(a1-3)]GlcNAc(b1-6)[Gal(b1-3)]GalNAc
Procedure, shortened: as §1

[42] = molecular target: Neu5Ac(a2-3)Gal(b1-4)[Fuc(a1-3)]GlcNAc(b1-6)[Neu5Ac(a2-3)Gal(b1-3)]GalNAc
Procedure, shortened: as §1

[43] = molecular target: Neu5Ac(a2-3)Gal(b1-4)[Fuc(a1-3)]GlcNAc6S
Procedure, shortened: as §1

[44] = molecular target: Neu5Ac(a2-3)Gal6S(b1-4)GlcNAc
Procedure, shortened: as §1

B1: pTFF2 (Sus scrofa), P01359 (protein)
chain: KPAACRCSRQDPKNRVNCGFPGITSDQCFTSGCCFDSQVPGVPWCFKPLPAQESEECVMEVSARKNCGYPGISPEDCAARNCCFSDTIPEVPWCFFPMSVEACHY
glycan array binding signal (z-score) [1]: 0.957
glycan array binding signal (z-score) [2]: -1.4
glycan array binding signal (z-score) [3]: -0.109
glycan array binding signal (z-score) [4]: 0.441
glycan array binding signal (z-score) [5]: 0.709
glycan array binding signal (z-score) [6]: -0.505
glycan array binding signal (z-score) [7]: 0.679
glycan array binding signal (z-score) [8]: 1.56
glycan array binding signal (z-score) [9]: -0.476
glycan array binding signal (z-score) (Neu5Ac(a2-3)Gal(b1-4)Glc): 0.989
glycan array binding signal (z-score) [10]: 1.19
glycan array binding signal (z-score) [11]: 0.291
glycan array binding signal (z-score) [12]: -0.251
glycan array binding signal (z-score) [13]: 0.739
glycan array binding signal (z-score) [14]: 1.18
glycan array binding signal (z-score) [15]: -0.107
glycan array binding signal (z-score) [16]: 6.13
glycan array binding signal (z-score) [17]: -0.512
glycan array binding signal (z-score) [18]: -0.935
glycan array binding signal (z-score) [19]: -0.41
glycan array binding signal (z-score) [20]: -0.049
glycan array binding signal (z-score) [21]: -1.24
glycan array binding signal (z-score) [22]: 0.116
glycan array binding signal (z-score) [23]: -0.802
glycan array binding signal (z-score) [24]: 1.35
glycan array binding signal (z-score) [25]: 1.37
glycan array binding signal (z-score) [26]: -0.535
glycan array binding signal (z-score) [27]: -0.124
glycan array binding signal (z-score) [28]: 0.147
glycan array binding signal (z-score) [29]: -0.764
glycan array binding signal (z-score) [30]: 1.23
glycan array binding signal (z-score) [31]: -0.016
glycan array binding signal (z-score) [32]: -0.483
glycan array binding signal (z-score) [33]: 0.359
glycan array binding signal (z-score) [34]: -0.891
glycan array binding signal (z-score) [35]: -0.115
glycan array binding signal (z-score) [36]: -0.202
glycan array binding signal (z-score) [37]: -0.138
glycan array binding signal (z-score) [38]: -0.55
glycan array binding signal (z-score) [39]: -0.094
glycan array binding signal (z-score) [40]: 0.882
glycan array binding signal (z-score) [41]: -0.265
glycan array binding signal (z-score) [42]: -0.98
glycan array binding signal (z-score) [43]: 0.416
glycan array binding signal (z-score) [44]: -0.481
